# In the supplement of paper PMC10338343:
# ± gives the standard deviation. This is a selection; strong and weak results do not stand in their true shares. Many entries were measured with a wide error.
# Test system: MIWI (PIWIL1) piRISC loaded with piRNA #1 (30 nt)
# Assay: pre-steady-state target cleavage rate (min^-1); MIWI and MILI are mouse PIWI proteins and EfPiwi is from a freshwater sponge; tags in brackets are library labels; higher = faster piRNA-guided slicing of the target
# Settings: guide: piRNA #1 5'p-UGAGGUAGUAGGUUGUAUAGUAUCCAGAGG; auxiliary factor: 500 nM mouse GTSF1
# In short: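 Cleave-'n-Seq: a transcribed, DNA-blocked target RNA library (0.1 nM) was mixed with 1 nM active affinity-purified piRISC carrying one synthetic guide, with or without 500 nM GTSF1 partner protein, in HEPES–potassium acetate buffer at 33 °C for 0–8 or 0–960 min. Uncleaved targets were sequenced and normalised to depth and to weakly complementary targets. Three trials were pooled, and k3 was capped at 0.0001 min^-1. The pre-steady-state cleavage rate came from a burst-and-steady-state fit.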
row,Sequence,pre-steady-state target cleavage rate
1,GGAGACCUUACUAUACAACCUACUCCUCA,0.000829 ± 0.0063
2,GGAGACCUAUGAAUACAACCUACUACUCUCA,0.00203 ± 0.0027
3,GGAGACCUAUGAAUACAUCCUACUAGCUCA,0.00023 ± 0.012
4,GCUCUCGAUACUAAACAACCUACUACCUCA,1.81 ± 0.12
5,GCUCUGGAUACUAUACAACCUACUACUCUCA,2.07 ± 0.12
6,CCUCUGGAUCCUAUACAACCUACUACCUCA,1.38 ± 0.14
7,GGUCUGCAUACUAUACAACCUACUACCUCA,1.71 ± 0.1
8,GGAGACCUAUCUAUACAACCAAGUACCUCA,0.00191 ± 0.0034
9,ACUCUGGAUACUAUACAACCUACUACCUCA,2.19 ± 0.13
10,GGAGACCUAUCUAUACUACCAACUACCUCA,0.00109 ± 0.0053
11,GGAGACCUAUCAAUUCAACCUACUACCUCA,0.000639 ± 0.0064
12,GGAGACCUAUGAAUACAAACUACUACCUCA,0.00188 ± 0.0029
13,GGUUGGAUACUAUACAACCUACUACCUCA,1.78 ± 0.1
14,CCUCUGGAUACUAUGCAACCUACUACCUCA,2.09 ± 0.13
15,GGACUGGAUACUAUACAACCUACAACCUGA,0.00162 ± 0.0048
16,GGAGACCUAUGUAUACAAGCAACUACCUCA,0.000797 ± 0.006
17,GCUGUGCAUACUAUACAACCUACUACCUCA,1.91 ± 0.12
18,GCCCUGGAUACUAUACAACCUACUACCUCA,2.17 ± 0.12
19,CCUCUGGUUACUAUACAACCUACAACCUCA,1.28 ± 0.089
20,GGAGACCUAUCUAUACUACCUACUACCUCA,0.0899 ± 0.011

# 3 entries from above in a different format.
row	Sequence	pre-steady-state target cleavage rate
7	GGUCUGCAUACUAUACAACCUACUACCUCA	1.71 ± 0.1
9	ACUCUGGAUACUAUACAACCUACUACCUCA	2.19 ± 0.13
11	GGAGACCUAUCAAUUCAACCUACUACCUCA	0.000639 ± 0.0064

# Continuation:

row,Sequence,pre-steady-state target cleavage rate
1,GGAGACGAUACUAUACAACCUACUACCUCC [g2:g24:cont:t1C],1.5 ± 0.075
2,GGAGACCUAUGAUUACAACCUACUACCUCA [g2:g17:cont:t1A],0.00172 ± 0.0055
3,GGAGACCUAUGAUAUGUUGCUACUACCUAA,0.000327 ± 0.013
4,GGACUGGAUACUAUACAACCUAGUACCACA,0.00142 ± 0.0063
5,GGAGACCUAUGAAUACAACCAUCUACCUCA,0.00081 ± 0.0052
6,GGAGAGGAAACAAUACAACCUACUACCUCA,0.95 ± 0.079
7,GGAGACCUAUGAUAUCAACCUACUAACCUCA,0.000291 ± 0.0062
8,CCUCAGGAUACUAUACAACCUACUACCACA,2.43 ± 0.17
9,GCUCUGGAUACUAUCAACCUACUACCUCA,1.78 ± 0.12
10,CCUCUGGAUACUAUUCAACCUACUAGCUCA,1.37 ± 0.12
11,GGAGACCUAUGUUUACAACCUACUACCACA,0.00169 ± 0.0045
12,GGUCUGGAAACUAUACAACCUACUACCACA,0.461 ± 0.05
13,GCUCUGCAUACAAUACAACCUACUACCUCA,1.82 ± 0.13
14,GGAGACGAUACUAUACAACCUCACUACCUCA,0.00311 ± 0.0036
15,GGUCUCGAUACUAUUCAACCUACUACCUCA,1.86 ± 0.12
16,GGUCUGGAUACUAUACAACCUAGUACCACA,0.0022 ± 0.0028
17,GGUCUGGAUACUAUACUACCUACAACCUCA,0.456 ± 0.054
18,GGAGACCUAUGUAAACAACCUAGUACCUCA,0.00189 ± 0.0025
19,GGAGAGGAUACUAUACAUCCUACUUCCUCA,0.0568 ± 0.0099
20,GGAGUGGAUACUAUACAACCUAUACCUCA,0.000944 ± 0.0065
